These are yes or no findings as the source states them, for the method shown. In cells and extracts the contact can be indirect. A yes stands for co-enrichment or nearness to the bait. Other partners may have been found.
Molecular target: Flag-tagged version of LOXL2 (lysyl oxidase-like 2), from pcDNA3-hLOXL2-Flag (human) (UniProt Q9Y4K0)
Test: affinity purification with mass spectrometry; extracts of HEK293T cells transfected with pcDNA3-hLOXL2-Flag (IPH buffer: 50 mM Tris-HCl pH 8.0, 150 mM NaCl, 5 mM EDTA, 0.5% NP-40); immunoprecipitated with anti-Flag M2 affinity gel 5 h at 4 °C; proteins identified by mass spectrometry

Protein sequences, listed by entry. Tags and fused reporters are not part of them. Residues count along the entry.
UniProt Q9Y4K0, residues 26-774: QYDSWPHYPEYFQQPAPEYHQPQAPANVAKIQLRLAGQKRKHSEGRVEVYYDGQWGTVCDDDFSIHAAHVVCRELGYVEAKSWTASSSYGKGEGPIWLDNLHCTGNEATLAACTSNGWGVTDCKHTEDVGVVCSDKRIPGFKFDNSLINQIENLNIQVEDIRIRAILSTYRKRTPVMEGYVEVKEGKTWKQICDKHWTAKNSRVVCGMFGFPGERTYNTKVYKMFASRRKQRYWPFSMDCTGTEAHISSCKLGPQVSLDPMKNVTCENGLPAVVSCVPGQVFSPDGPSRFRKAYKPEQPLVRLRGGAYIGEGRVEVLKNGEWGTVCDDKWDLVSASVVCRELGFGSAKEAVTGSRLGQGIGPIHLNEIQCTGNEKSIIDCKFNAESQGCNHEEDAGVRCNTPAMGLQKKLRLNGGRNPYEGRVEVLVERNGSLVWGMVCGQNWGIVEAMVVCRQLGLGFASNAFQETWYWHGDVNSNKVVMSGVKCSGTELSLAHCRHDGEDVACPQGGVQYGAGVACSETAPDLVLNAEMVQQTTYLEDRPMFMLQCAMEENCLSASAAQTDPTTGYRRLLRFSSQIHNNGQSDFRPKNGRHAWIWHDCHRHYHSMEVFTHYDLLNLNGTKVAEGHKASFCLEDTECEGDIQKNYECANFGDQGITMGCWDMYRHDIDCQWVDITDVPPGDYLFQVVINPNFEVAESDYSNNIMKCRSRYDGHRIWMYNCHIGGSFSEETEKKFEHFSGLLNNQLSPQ
UniProt P11021, residues 19-654: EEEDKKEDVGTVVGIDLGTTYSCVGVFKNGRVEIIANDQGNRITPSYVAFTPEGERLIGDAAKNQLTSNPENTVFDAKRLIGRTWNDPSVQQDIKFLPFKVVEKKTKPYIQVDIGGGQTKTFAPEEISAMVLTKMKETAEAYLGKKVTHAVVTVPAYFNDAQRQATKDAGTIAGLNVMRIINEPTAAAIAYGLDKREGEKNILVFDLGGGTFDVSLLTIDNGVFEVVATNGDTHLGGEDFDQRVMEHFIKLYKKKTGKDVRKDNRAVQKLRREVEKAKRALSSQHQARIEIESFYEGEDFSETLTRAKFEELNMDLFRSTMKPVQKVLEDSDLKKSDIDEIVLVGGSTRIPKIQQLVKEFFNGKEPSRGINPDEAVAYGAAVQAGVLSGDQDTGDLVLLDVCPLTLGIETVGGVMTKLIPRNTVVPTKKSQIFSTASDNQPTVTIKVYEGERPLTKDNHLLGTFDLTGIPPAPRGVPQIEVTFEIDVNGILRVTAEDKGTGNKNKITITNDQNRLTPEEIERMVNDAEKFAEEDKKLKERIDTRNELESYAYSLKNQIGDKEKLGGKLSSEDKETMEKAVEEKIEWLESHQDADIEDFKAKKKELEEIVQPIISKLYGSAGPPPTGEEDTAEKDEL

## HSPA5 (endogenous in HEK293T cells) (from UniProt P11021 19-654)
  binding: binds

From paper PMC5362953
